{
  "source": "paper PMC6033466",
  "molecular_target": "T1, Myc-VN-USP8 (human) (UniProt P40818)",
  "T1 sequence": "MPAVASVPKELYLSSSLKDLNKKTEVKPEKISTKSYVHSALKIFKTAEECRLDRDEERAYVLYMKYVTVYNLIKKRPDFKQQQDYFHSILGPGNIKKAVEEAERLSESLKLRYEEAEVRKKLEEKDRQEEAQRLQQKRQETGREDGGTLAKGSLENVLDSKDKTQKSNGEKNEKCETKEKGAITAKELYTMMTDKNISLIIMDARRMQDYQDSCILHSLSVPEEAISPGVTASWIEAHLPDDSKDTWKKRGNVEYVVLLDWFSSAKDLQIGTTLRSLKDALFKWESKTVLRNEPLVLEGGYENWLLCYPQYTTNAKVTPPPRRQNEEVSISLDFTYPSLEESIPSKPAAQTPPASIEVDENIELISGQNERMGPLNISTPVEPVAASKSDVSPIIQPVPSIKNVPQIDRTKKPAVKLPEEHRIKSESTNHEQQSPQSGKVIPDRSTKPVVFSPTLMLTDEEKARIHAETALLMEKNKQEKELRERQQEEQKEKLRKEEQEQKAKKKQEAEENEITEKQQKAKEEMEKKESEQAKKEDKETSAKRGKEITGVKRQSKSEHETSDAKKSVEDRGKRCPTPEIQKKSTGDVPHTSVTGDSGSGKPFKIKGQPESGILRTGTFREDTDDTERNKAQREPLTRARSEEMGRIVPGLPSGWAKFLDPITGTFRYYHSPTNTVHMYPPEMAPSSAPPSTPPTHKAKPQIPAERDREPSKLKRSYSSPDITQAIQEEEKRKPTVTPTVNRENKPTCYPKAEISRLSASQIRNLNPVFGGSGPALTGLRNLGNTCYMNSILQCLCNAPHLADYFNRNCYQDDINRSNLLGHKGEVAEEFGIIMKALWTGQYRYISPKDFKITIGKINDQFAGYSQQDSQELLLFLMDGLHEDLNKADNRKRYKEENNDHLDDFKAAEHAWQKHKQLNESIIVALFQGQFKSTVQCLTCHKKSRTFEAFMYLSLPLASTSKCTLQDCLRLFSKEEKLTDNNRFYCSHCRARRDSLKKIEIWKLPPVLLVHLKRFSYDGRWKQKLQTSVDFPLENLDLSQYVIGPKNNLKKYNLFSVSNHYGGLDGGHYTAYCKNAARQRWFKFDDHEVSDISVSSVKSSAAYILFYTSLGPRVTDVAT",
  "assay": "split reporter; Venus complementation; fixed HeLa cells co-transfected with Myc-VN-USP8 and HA-VC-CHMP1B constructs; Venus spots counted per Myc and HA positive cell",
  "note": "These are yes or no findings as the source states them, for the method shown. In cells and extracts the contact can be indirect. Binding calls can cover weak binding; strength is not graded here. Sequences can lack the tags named with a protein.",
  "data": [
    {"substance": "HA-VC-CHMP1B Δα5,6 (human) (domain or fragment)", "values": [
      {"measurement": "binding", "value": "binds"}
    ]},
    {"substance": "HA-VC-CHMP1B Δα6 (human) (domain or fragment)", "values": [
      {"measurement": "binding", "value": "binds"}
    ]}
  ]
}
